Reference: article PMC8282777
These are yes or no findings as the source states them, for the method shown. Binding seen in cells or lysates may run through a third protein. Some results given as binding are weak or reduced against the parent protein; the word gives no strength.

By UniProt entry, the sequences of proteins in these tests, tags left out.
UniProt P25490: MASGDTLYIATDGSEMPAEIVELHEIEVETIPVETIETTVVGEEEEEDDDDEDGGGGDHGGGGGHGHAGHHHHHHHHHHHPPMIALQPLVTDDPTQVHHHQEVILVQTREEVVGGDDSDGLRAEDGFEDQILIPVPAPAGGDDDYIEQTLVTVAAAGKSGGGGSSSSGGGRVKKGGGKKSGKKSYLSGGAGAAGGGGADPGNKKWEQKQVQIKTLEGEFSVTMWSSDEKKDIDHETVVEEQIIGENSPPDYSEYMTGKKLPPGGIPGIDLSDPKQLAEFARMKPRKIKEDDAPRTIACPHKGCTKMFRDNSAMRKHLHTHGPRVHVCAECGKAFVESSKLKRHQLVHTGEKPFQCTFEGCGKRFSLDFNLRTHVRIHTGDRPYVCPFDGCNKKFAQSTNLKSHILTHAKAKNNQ
UniProt Q9HAU4: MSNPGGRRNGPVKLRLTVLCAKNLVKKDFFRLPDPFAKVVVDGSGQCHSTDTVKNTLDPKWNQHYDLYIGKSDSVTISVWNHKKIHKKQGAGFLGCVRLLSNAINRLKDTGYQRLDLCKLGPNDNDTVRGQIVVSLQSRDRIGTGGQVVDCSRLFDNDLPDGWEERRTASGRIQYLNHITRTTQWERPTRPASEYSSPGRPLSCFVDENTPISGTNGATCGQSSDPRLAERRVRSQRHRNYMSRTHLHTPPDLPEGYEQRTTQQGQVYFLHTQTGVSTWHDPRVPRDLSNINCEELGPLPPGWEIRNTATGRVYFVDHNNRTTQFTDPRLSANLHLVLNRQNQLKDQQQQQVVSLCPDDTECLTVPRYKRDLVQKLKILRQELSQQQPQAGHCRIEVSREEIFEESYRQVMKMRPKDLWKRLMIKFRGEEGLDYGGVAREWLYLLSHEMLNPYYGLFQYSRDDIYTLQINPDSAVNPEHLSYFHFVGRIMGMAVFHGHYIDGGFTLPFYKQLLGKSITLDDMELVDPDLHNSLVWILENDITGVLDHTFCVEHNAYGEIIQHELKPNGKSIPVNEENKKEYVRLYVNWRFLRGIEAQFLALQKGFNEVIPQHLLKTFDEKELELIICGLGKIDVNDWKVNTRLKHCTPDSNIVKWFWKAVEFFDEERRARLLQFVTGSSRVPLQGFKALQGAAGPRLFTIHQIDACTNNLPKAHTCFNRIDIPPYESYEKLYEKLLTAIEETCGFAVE

Target: Yin Yang 1 (YY1) (human (endogenous in ARPE-19)) (UniProt P25490)
Test: co-IP; ARPE-19 cells (1 x 10^7) lysed, incubated with anti-YY1 (ab227269) or IgG overnight, Protein A/G-agarose beads 4 h; YY1 and Smurf2 detected by western blotting

“Smad ubiquitin regulatory factor 2 (Smurf2) (from UniProt Q9HAU4 1-748)” was tested, and the binding was “binds”.
